Data on one molecule can be found in US20140294861A1 (University of Pennsylvania, published 2014).

The experiment deals with T1, recombinant B7-H4 protein (extracellular domain, IgC+IgV, fused to 6xHIS Tag) (human) (UniProt Q7Z7D3).
T1 sequence (chain, biotinylated in the capture ELISA (site not stated)): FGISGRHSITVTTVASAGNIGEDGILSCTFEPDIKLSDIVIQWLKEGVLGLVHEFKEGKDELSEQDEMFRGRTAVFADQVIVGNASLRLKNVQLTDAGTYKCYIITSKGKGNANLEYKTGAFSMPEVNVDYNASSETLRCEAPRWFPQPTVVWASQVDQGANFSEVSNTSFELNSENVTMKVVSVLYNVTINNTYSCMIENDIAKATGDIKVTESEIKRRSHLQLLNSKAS
As to the kind of experiment: capture ELISA, immobilized scFv, biotinylated rB7-H4, SA-HRP. Background: ELISA stands for enzyme-linked immunosorbent assay.

These are yes or no findings as the source states them, for the method shown. Some entries that bind do so weakly or less than the wild type. Where a sequence is shown, tags or fusion partners need not be part of it.

B1: anti-B7H4 scFv clone 3#68 (scFv)
scFv: QPGLTQPPSASGTPGQRVTISCSGSSSNIGSNYVYWYQQFPGTAPKLLIYRNNQRPSGVPDRFSGSKSGTSASLAISGLRSEDEADYYCAAWDDSLSVWVFGGGTKVTVLGGSSRSSSSGGSGSGGGGQVTLKESGAEVKNPGSSVKVSCKASGGTFSSYAISWLRQAPGQGLEWMGWINPNSGGSDYAQRFQGRVTMTRDTSINTVYMELSRLRSDDTAVYYCARVEKRGYYYGMDVWGQGTMVTVSSFEGSEQ
Consider B1, for which the binding entry is on record as “binds”.
